Data as given in patent publication US20210147812A1, “Method of Preparing Cancer Spheroid and Method of Selecting Colorectal Cancer Patient” (Kyo Diagnostics K.K., priority 2017, published 2021).
Some entries share one result that the patent states for a list of compounds. At least one structure is not confirmed: it was looked up by name or label, or the drawing left a doubt.

Test system: three luciferase-expressing CRC-TIC spheroid lines (HC21T, HC18T, HC25T)
Experiment: Chemical library screening of 80 agonists or activators for growth-promoting effects
Assay type: cell-based, human
Conditions: 10 μM each
Method: For growth monitoring assays, luciferase-expressing spheroids were cultured in 2-3 wells of a 12-well cell-culture plate. […] The spheroid cells were resuspended in Matrigel, distributed to the wells of 96-well “white” cell-culture plates (Corning; 3 μl per well) on a plate heater at 37° C., and cultured overnight in 100 μl/well of the medium. Spheroids were rinsed with 100 μl/well of PBS, and incubated with 50 μl of 150 μg/ml luciferin in phenol red-free DMEM/F12 medium (Nacalai) for 10 min at room temperature […]. Luminescence was scored using a conventional imaging device (Gel Doc XR+, BioRad). After this initial measurement, spheroids in each well were rinsed with 100 μl of PBS, and cultured in 100 μl of the medium. Luminescence was determined daily or 3 days later. The cell growth rate for each well was estimated as the proportion of photon counts to those on day 1.

CCNC(=O)[C@H]1O[C@@H](n2cnc3c(N)ncnc32)[C@H](O)[C@@H]1O [NECA, 5′-(N-ethyl-carboxamido)-adenosine] was tested, and the “stimulation of spheroid growth” value was over 25%.
